Measurements as given in article PMC8254121.
Results are given in words; binding and its absence hold for the method and conditions named. In cells and extracts the contact can be indirect. Binding calls can cover weak binding; strength is not graded here.

Chains of the proteins cited; added tags and fusions are not shown. Lines headed by an entry give the natural chain unless they say otherwise; changes in a name come on top. Residues count along the entry.
UniProt P56817: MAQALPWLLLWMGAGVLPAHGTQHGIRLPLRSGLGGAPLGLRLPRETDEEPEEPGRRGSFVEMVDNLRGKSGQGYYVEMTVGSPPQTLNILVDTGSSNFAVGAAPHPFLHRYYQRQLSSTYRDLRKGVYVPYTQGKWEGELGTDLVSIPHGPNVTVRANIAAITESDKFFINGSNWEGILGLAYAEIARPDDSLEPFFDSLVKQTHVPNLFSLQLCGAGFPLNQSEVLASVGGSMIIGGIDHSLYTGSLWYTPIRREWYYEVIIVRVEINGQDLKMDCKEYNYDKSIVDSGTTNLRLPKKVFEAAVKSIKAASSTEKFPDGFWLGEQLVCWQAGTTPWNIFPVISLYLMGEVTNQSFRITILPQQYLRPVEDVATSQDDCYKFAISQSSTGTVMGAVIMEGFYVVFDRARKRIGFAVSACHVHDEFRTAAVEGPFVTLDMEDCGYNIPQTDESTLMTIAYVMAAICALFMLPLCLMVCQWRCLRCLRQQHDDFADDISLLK
UniProt P06213, residues 28-1382: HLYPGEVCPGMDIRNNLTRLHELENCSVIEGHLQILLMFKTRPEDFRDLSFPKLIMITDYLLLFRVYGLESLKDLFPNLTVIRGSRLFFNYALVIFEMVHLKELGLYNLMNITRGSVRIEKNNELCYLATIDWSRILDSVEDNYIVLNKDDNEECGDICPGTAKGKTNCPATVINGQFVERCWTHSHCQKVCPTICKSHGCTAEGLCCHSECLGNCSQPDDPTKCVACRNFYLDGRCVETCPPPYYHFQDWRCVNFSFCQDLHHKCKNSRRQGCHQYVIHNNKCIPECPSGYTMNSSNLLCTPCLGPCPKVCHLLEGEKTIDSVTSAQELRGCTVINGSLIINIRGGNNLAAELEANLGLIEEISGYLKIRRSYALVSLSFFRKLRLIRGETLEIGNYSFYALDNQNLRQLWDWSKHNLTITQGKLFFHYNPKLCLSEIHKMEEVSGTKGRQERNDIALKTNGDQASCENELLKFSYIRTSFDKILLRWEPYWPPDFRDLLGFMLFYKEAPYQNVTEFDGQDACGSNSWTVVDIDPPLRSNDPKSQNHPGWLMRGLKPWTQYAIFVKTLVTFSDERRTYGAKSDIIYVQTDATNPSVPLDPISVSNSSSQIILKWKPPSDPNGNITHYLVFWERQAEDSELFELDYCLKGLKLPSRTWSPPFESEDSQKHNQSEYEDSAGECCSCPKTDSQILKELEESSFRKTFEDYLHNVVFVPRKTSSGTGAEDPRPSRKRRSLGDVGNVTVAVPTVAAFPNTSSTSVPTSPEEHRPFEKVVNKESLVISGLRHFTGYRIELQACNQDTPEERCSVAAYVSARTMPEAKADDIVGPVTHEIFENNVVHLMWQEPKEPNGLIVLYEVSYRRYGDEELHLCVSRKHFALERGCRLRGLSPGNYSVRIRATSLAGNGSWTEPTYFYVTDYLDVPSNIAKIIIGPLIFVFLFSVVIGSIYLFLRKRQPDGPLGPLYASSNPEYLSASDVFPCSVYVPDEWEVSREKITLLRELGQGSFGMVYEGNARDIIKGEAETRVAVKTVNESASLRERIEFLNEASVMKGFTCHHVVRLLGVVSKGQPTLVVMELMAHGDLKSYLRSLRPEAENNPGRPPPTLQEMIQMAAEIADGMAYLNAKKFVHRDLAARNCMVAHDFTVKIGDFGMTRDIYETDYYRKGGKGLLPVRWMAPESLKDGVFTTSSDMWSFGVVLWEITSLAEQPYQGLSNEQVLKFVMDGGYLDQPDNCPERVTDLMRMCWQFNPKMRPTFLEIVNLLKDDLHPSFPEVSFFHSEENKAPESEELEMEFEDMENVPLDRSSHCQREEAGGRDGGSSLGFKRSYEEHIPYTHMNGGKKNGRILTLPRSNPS

Columns and labels:
[1] = target: HA-tagged BACE1 (β-secretase 1) (UniProt P56817); assay: co-IP; immunoprecipitation with anti-tag antibodies (anti-HA or anti-FLAG) from lysates of transfected HEK293 cells; immunoblot with anti-HA, anti-BACE1 prodomain, anti-FLAG or anti-IR antibodies
[2] = target: FLAG-tagged insulin receptor (UniProt P06213); assay: as above

| binding [1] | binding [2] | Substance |
| --- | --- | --- |
| binds |  | insulin receptor (IR), no tag named (from UniProt P06213 28-1382) |
|  | binds | HA-tagged BACE1 (β-secretase 1) (from UniProt P56817) (enzyme) |
